# Reference: paper PMC7819943, “Rice protein-binding microarrays: a tool to detect cis-acting elements near promoter regions in rice”
# Protein sequences, listed by entry. Tags and fused reporters are not part of them.
# UniProt Q0JBA9, entry or part of it: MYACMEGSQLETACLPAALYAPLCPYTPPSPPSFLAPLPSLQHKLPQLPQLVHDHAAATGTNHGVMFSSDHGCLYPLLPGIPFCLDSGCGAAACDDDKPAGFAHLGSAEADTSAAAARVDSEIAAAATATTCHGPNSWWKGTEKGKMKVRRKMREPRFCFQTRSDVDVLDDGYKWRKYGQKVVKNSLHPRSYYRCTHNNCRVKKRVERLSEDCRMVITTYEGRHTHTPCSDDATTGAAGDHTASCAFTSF
# The other results are listed elsewhere or left out.
# Biological target: OsWRKY34 (Oryza sativa, UniProt Q0JBA9 1-250)
# Experiment: protein-binding microarray (RPBM); PBS, 2% BSA, 51.3 ng/ul salmon testes DNA, 50 uM zinc acetate, 200 nM TF, 25 C, 1 h; high values mean tight binding
# Details: protein: recombinant; tags: N-terminal polyhistidine and DsRed monomer fusion (pET32a); label: CyDye5-dUTP incorporated in the synthesized complementary strand; 3' TTTTT single-stranded linker to array surface; dsDNA, one strand shown
# How it was run: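 The binding signal is fluorescence intensity per feature, in arbitrary units, read on an Axon 4000B scanner. Polyhistidine- and DsRed-tagged transcription factors (N-terminal fusions) from E. coli BL21-CodonPlus were purified on Ni–NTA and applied at 200 nM for 1 h at 25 °C to a double-stranded, BSA-blocked custom Agilent array in buffer with 50 µM zinc acetate.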
row,Sequence,binding signal
1,CGCCGCCACCACCGCCACGGCGCCACCGCCGCCGCCGCCACGGAGTCACCTAGTGCAG,8570 fluorescence intensity (a.u.)
2,ACTTTCAGGCCTCATAACTGTGCCAGTGACGACAACAGATCGGAGTCACCTAGTGCAG,8430 fluorescence intensity (a.u.)
3,CAAAATAACCAGTGCTCAAATGCCACTCTCCCAAATTTTCCGGAGTCACCTAGTGCAG,8820 fluorescence intensity (a.u.)
4,TCCTTATATAAAGCCATGCGCTCCCACCGCTTCTTAACATCGGAGTCACCTAGTGCAG,9060 fluorescence intensity (a.u.)
5,AGTAGTATAGGGGAGAGGGTGGGCGGGTGATCGCTGGGCGCGGAGTCACCTAGTGCAG,16200 fluorescence intensity (a.u.)
6,ATGAATTGCTGCCCTGTGAATTTGTCCTGGACTTACCTTCCGGAGTCACCTAGTGCAG,10100 fluorescence intensity (a.u.)
7,CAACAGTGCCAATTGCAATTGCCATCATTCTTTACTGTCACGGAGTCACCTAGTGCAG,9900 fluorescence intensity (a.u.)
8,TGGACCAGTTTATGTTGCATTTTTTAAAAACACCTGTTTACGGAGTCACCTAGTGCAG,8710 fluorescence intensity (a.u.)
9,AATCACACTACCATCCGTTGTAAAGGCTGGCGCACCCTGACGGAGTCACCTAGTGCAG,8300 fluorescence intensity (a.u.)
10,TTTGCATAGGAATATAGTCTTCTAGCTTTTGCTTGTTTAACGGAGTCACCTAGTGCAG,8200 fluorescence intensity (a.u.)
11,GTTTATGTTTGTTTCTCTTCATTACCAGTAGTAGCAACTACGGAGTCACCTAGTGCAG,9630 fluorescence intensity (a.u.)
12,ATTCGGTTGATTATTATCTCTGCTTGACTAATACTACTCACGGAGTCACCTAGTGCAG,10100 fluorescence intensity (a.u.)
13,GTGCTCGATGCTCGATGCCCTCCTTTTCCGCCATCTTTTTCGGAGTCACCTAGTGCAG,10200 fluorescence intensity (a.u.)
14,ACAACCCTCTTCCAATCATTTCTACCTACTTTCTTAATACCGGAGTCACCTAGTGCAG,8460 fluorescence intensity (a.u.)
15,AATATTGTGTGTTGTTGTGTTGTCATCTGATATATTTTAGCGGAGTCACCTAGTGCAG,10400 fluorescence intensity (a.u.)
16,TCATACTTCCATATCTTATTCCACACTTGGTTGTAGTTTTCGGAGTCACCTAGTGCAG,9010 fluorescence intensity (a.u.)
17,TATGGTATTTGGGTTAAAGAACGAAAATCGAACTCGCTGTCGGAGTCACCTAGTGCAG,8160 fluorescence intensity (a.u.)
18,CGATCGATCACTACACCTTCACTTTCTCTTCTCATCATCTCGGAGTCACCTAGTGCAG,11100 fluorescence intensity (a.u.)
19,TGCTTAGTTGCCCTACAACCTTTTTACAGGCTATATTTATCGGAGTCACCTAGTGCAG,8110 fluorescence intensity (a.u.)
20,GGCATCCATCCTTTCTATGGTGATCTTCTTCATGTTCTGTCGGAGTCACCTAGTGCAG,11200 fluorescence intensity (a.u.)
21,ATTTCGTTCTCATCAGAGTGCACTACCCCTGTTTGACATGCGGAGTCACCTAGTGCAG,8220 fluorescence intensity (a.u.)

row,Sequence,binding signal
1,GCTTAGATACCACACTAATCGACATTCAACACATGTATTTCGGAGTCACCTAGTGCAG,9670 fluorescence intensity (a.u.)
2,GCCTCCCCTCATCCACACCAACCATCTGCGCTGCGCTCCGCGGAGTCACCTAGTGCAG,8510 fluorescence intensity (a.u.)
3,GGTAGTGGATGTTGTTTTGCGAAAAAGCCCCTCGTCTTCCCGGAGTCACCTAGTGCAG,9540 fluorescence intensity (a.u.)
4,GCAGGTGTCCAGCCCAAGCGGTGGCCGTTGACCAGGGCGCCGGAGTCACCTAGTGCAG,10600 fluorescence intensity (a.u.)
5,GGAGAGGGAGCGGGAGAGGGAGGATTGGAGGATGTGGGGACGGAGTCACCTAGTGCAG,8940 fluorescence intensity (a.u.)
6,TCCTTAGCTCCGCGGATTTGTTCACCATCACCACCATCACCGGAGTCACCTAGTGCAG,8780 fluorescence intensity (a.u.)
7,CCCGAACAGCCACCGCCGCCGCCGCCGCCGCCGATCCATGCGGAGTCACCTAGTGCAG,10100 fluorescence intensity (a.u.)
8,GTTGTCGCCGCCGCCATGCTTTCGCTCGCCACCTCCTCCACGGAGTCACCTAGTGCAG,9140 fluorescence intensity (a.u.)
9,ACATGCAACAGTGTGTCGTGCTTGTATTTCTGTTATCTGACGGAGTCACCTAGTGCAG,8660 fluorescence intensity (a.u.)
10,AGGAGAGTCTCGTCCCATTCGGATGCCCTAGCTCAAGTCCCGGAGTCACCTAGTGCAG,8310 fluorescence intensity (a.u.)
11,GGTGTTTTTTTACCCTTTATTCCTTTATATTTATATAACACGGAGTCACCTAGTGCAG,9990 fluorescence intensity (a.u.)
12,TATATCACGGACCTACTTTTCCACGCCACATCCCTAAACTCGGAGTCACCTAGTGCAG,8090 fluorescence intensity (a.u.)
13,TTTTCTCGGTGGCCTCTGTTGTGTCTGCCATCCTGCTATGCGGAGTCACCTAGTGCAG,11200 fluorescence intensity (a.u.)
14,AACACACGACGACTTCTATCCATCCTATATACCGAACCCTCGGAGTCACCTAGTGCAG,9960 fluorescence intensity (a.u.)
15,CTCGCGGTCCACGGCCACTCCGCCCGTCCCTCTGCTCCGCCGGAGTCACCTAGTGCAG,11000 fluorescence intensity (a.u.)
16,AGGGGTGGCTCATCTTCTCTCTCTCCACTTCTCTCCTCCACGGAGTCACCTAGTGCAG,10900 fluorescence intensity (a.u.)
17,TTCCACTGTGTCATGTGCAACAACCCACATGAGCGCGAGCCGGAGTCACCTAGTGCAG,8100 fluorescence intensity (a.u.)
18,GACGAACACCGAACCTTAGATGTTGACTTGAGGGCATCACCGGAGTCACCTAGTGCAG,8420 fluorescence intensity (a.u.)
19,TCCACTGCTCTCAAATCTCAATACTACTACTGTTCTATCGCGGAGTCACCTAGTGCAG,10600 fluorescence intensity (a.u.)
20,CGCTCCGCGATTCGTGTTGGTTCTTTTTTTTGTTTCTTGGCGGAGTCACCTAGTGCAG,8470 fluorescence intensity (a.u.)
21,GGGGTTTCCAAAATATGTGGGTTTTTTTGGTTGCAATGGACGGAGTCACCTAGTGCAG,10700 fluorescence intensity (a.u.)

# An excerpt of the results above, as a working copy:
row,Sequence,binding signal
13,TTTTCTCGGTGGCCTCTGTTGTGTCTGCCATCCTGCTATGCGGAGTCACCTAGTGCAG,11200 fluorescence intensity (a.u.)
14,AACACACGACGACTTCTATCCATCCTATATACCGAACCCTCGGAGTCACCTAGTGCAG,9960 fluorescence intensity (a.u.)
